± gives the standard deviation of the averaged measurements. Most entries show no effect beyond the scatter of the controls.
What was measured:
Test in all cases: level (log10 ratio to DMSO vehicle control); higher = higher biomarker level / cell amount than vehicle control
[1] = compound: NC(=O)C(F)(F)C(F)(F)C(F)(F)F [Heptafluorobutyramide]; conditions: 2200 nM; in DMSO
Procedure: (§1)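 BioMAP Diversity Plus panel of 12 human primary cell co-culture systems (3C, 4H, LPS, SAg, BT, BF4T, BE3C, CASM3C, HDF3CGF, KF3CT, MyoF, Mphg). Compounds were added 1 h before stimulation and left for 24 h (MyoF 48 h; BT 72 h for soluble read-outs or 6 d for IgG). Biomarkers were read by ELISA, cytotoxicity by SRB, PBMC viability and proliferation by Alamar Blue. Each well value was divided by the mean of 8 DMSO control wells on the same plate and log10 transformed; duplicate blinded samples were tested at 4 concentrations.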

[2] = compound: FC(F)(F)C(F)(F)C(F)(F)C(F)(F)C(F)(F)C(F)(F)CC1CO1 [3-(Perfluorohexyl)-1,2-epoxypropane]; conditions: 2200 nM; in DMSO
Procedure: as §1

[3] = compound: Cc1ccc(S(=O)(=O)OCC(F)(F)C(F)(F)C(F)(F)C(F)(F)C(F)(F)C(F)F)cc1 [1H,1H,7H-Perfluoroheptyl 4-methylbenzenesulfonate]; conditions: 2200 nM; in DMSO
Procedure: as §1

[4] = compound: CC(C)(C)C(=O)CC(=O)C(F)(F)C(F)(F)C(F)(F)F [(Heptafluorobutanoyl)pivaloylmethane]; conditions: 2200 nM; in DMSO
Procedure: as §1

[5] = compound: OCCC(F)(F)C(F)(F)C(F)(F)C(F)(F)C(F)(F)C(F)(F)F [6:2 Fluorotelomer alcohol]; conditions: 2200 nM; in DMSO
Procedure: as §1

[6] = compound: O=C(O)C(F)(F)C(F)(F)C(F)(F)C(F)(F)F [Perfluoropentanoic acid]; conditions: in DMSO
Procedure: as §1

[7] = compound: CCCCCCCCC(F)(F)C(F)(F)C(F)(F)C(F)(F)C(F)(F)C(F)(F)F [1-(Perfluorohexyl)octane]; conditions: in DMSO
Procedure: as §1

[8] = compound: O=C(O)C(F)(F)C(F)(F)C(F)(F)C(F)(F)C(=O)O [Octafluoroadipic acid]; conditions: 2200 nM; in DMSO
Procedure: as §1

[9] = compound: CN(C(=O)C(F)(F)C(F)(F)C(F)(F)F)[Si](C)(C)C [N-Methyl-N-trimethylsilylheptafluorobutyramide]; conditions: 2200 nM; in DMSO
Procedure: as §1

[10] = compound: O=S(=O)(O)CCC(F)(F)C(F)(F)C(F)(F)C(F)(F)C(F)(F)C(F)(F)C(F)(F)C(F)(F)F [8:2 Fluorotelomer sulfonic acid]; conditions: in DMSO
Procedure: as §1

[11] = compound: CCN(CCO)S(=O)(=O)C(F)(F)C(F)(F)C(F)(F)C(F)(F)C(F)(F)C(F)(F)C(F)(F)C(F)(F)F [N-Ethyl-N-(2-hydroxyethyl)perfluorooctanesulfonamide]; conditions: in DMSO
Procedure: as §1

[12] = compound: OCC(F)(F)C(F)(F)C(F)(F)F [1H,1H-Heptafluorobutanol]; conditions: 2200 nM; in DMSO
Procedure: as §1

[13] = compound: O=C(O)C(F)(F)C(F)(F)C(F)(F)OC(F)(F)F [Perfluoro(4-methoxybutanoic) acid]; conditions: 2200 nM; in DMSO
Procedure: as §1

[14] = compound: O=C(O)C(F)(F)C(F)(F)C(F)(F)C(F)(F)C(F)(F)C(F)(F)C(F)(F)C(F)(F)C(F)(F)C(F)F [11-H-Perfluoroundecanoic acid]; conditions: 2200 nM; in DMSO
Procedure: as §1

[15] = compound: NCC(F)(F)C(F)(F)C(F)(F)C(F)(F)C(F)(F)C(F)(F)C(F)(F)F [1H,1H-Perfluorooctylamine]; conditions: 2200 nM; in DMSO
Procedure: as §1

[16] = compound: O=C(O)C(F)(F)C(F)(F)C(F)(F)C(F)(F)C(F)(F)C(F)(F)F [Perfluoroheptanoic acid]; conditions: in DMSO
Procedure: as §1

Test System | level (log10) [1] | level (log10) [2] | level (log10) [3] | level (log10) [4] | level (log10) [5] | level (log10) ([6]; 2200 nM) | level (log10) ([6]; 6700 nM) | level (log10) ([6]; 20000 nM) | level (log10) ([6]; 60000 nM) | level (log10) ([7]; 740 nM) | level (log10) ([7]; 2200 nM) | level (log10) [8] | level (log10) [9] | level (log10) ([10]; 2200 nM) | level (log10) ([10]; 6700 nM) | level (log10) ([10]; 20000 nM) | level (log10) ([10]; 60000 nM) | level (log10) ([11]; 2200 nM) | level (log10) ([11]; 6700 nM) | level (log10) ([11]; 20000 nM) | level (log10) [12] | level (log10) [13] | level (log10) [14] | level (log10) [15] | level (log10) ([16]; 2200 nM) | level (log10) ([16]; 6700 nM) | level (log10) ([16]; 20000 nM) | level (log10) ([16]; 60000 nM)
CASM3C:CD87/uPAR | -0.003 ± 0.014 | -0.003 ± 0.03 | -0.007 ± 0.021 | 0.001 ± 0.0028 | -0.0065 ± 0.019 | -0.014 ± 0.02 | -0.027 ± 0.052 | -0.031 ± 0.027 | -0.0175 ± 0.005 | -0.015 ± 0.0099 | -0.0145 ± 0.0092 | -0.024 ± 0.0099 | -0.013 ± 0.048 | 0.006 ± 0.023 | 0.025 ± 0.0099 | 0.022 ± 0.0014 | -0.0055 ± 0.016 | 0.0015 ± 0.0064 | -0.0595 ± 0.0092 | -0.09 ± 0.038 | 0.0015 ± 0.0078 | -0.0025 ± 0.015 | -0.0065 ± 0.06 | -0.0205 ± 0.0092 | -0.001 ± 0.0057 | -0.0005 ± 0.0078 | -0.019 ± 0.031 | -0.0055 ± 0.036
CASM3C:CD106/VCAM-1 | -0.025 ± 0.051 | -0.0045 ± 0.05 | 0.002 | 0.0025 ± 0.019 | 0.0155 ± 0.053 | 0.0195 ± 0.0064 | -0.0225 ± 0.0078 | -0.0565 ± 0.029 | -0.009 ± 0.0057 | -0.0035 ± 0.011 | -0.01 ± 0.016 | -0.008 ± 0.0057 | -0.018 ± 0.051 | 0.018 | 0.0015 ± 0.029 | -0.0425 ± 0.025 | -0.071 ± 0.033 | -0.0075 ± 0.019 | -0.085 ± 0.0057 | -0.219 ± 0.021 | 0.034 ± 0.013 | -0.0135 ± 0.05 | -0.027 ± 0.016 | -0.0125 ± 0.06 | 0.012 ± 0.047 | -0.0085 ± 0.0035 | -0.0135 ± 0.021 | 0.012 ± 0.054
CASM3C:CD141/Thrombomodulin | -0.017 ± 0.051 | 0.0165 ± 0.028 | -0.0085 ± 0.011 | -0.009 ± 0.031 | 0.0395 ± 0.046 | -0.008 | -0.0065 ± 0.016 | -0.0135 ± 0.035 | 0.0105 ± 0.005 | -0.0105 ± 0.022 | -0.0115 ± 0.018 | 0.0085 ± 0.022 | -0.014 ± 0.024 | 0.015 ± 0.075 | -0.0045 ± 0.029 | -0.026 ± 0.04 | -0.0265 ± 0.0035 | 0.0235 ± 0.018 | 0.078 ± 0.014 | 0.191 ± 0.013 | -0.008 ± 0.03 | -0.0015 ± 0.05 | -0.031 ± 0.0042 | 0.0055 ± 0.029 | 0.0415 ± 0.059 | -0.0085 ± 0.025 | 0.0065 ± 0.0064 | 0.011 ± 0.033
CASM3C:CD142/Tissue Factor | -0.013 ± 0.011 | -0.005 ± 0.048 | -0.016 ± 0.0042 | -0.0295 ± 0.012 | 0.007 ± 0.073 | -0.0215 ± 0.032 | -0.002 ± 0.0071 | -0.013 ± 0.024 | -0.0225 ± 0.056 | -0.023 ± 0.0042 | -0.017 ± 0.0057 | -0.013 ± 0.013 | -0.007 ± 0.051 | 0.022 ± 0.045 | -0.045 ± 0.0042 | -0.067 ± 0.027 | -0.0195 ± 0.03 | 0.0075 ± 0.044 | -0.0325 ± 0.012 | 0.0145 ± 0.022 | 0.008 ± 0.02 | -0.0045 ± 0.0021 | -0.039 ± 0.034 | 0.002 ± 0.031 | 0.0105 ± 0.029 | -0.0065 ± 0.012 | 0.015 ± 0.016 | 0.015 ± 0.071
CASM3C:CXCL8/IL-8 | -0.0005 ± 0.021 | 0.0265 ± 0.05 | 0.004 ± 0.011 | 0.0065 ± 0.015 | 0.0315 ± 0.033 | -0.006 ± 0.0071 | -0.01 ± 0.0085 | -0.019 ± 0.011 | -0.0015 ± 0.013 | 0.011 ± 0.014 | 0.005 ± 0.013 | -0.002 ± 0.0071 | 0.001 | 0.0225 ± 0.0035 | 0.019 ± 0.018 | -0.0065 ± 0.012 | 0.0035 ± 0.013 | -0.0075 ± 0.012 | -0.0075 ± 0.016 | -0.024 ± 0.0085 | 0.0095 ± 0.00071 | 0 ± 0.03 | 0.004 ± 0.0085 | 0.0125 ± 0.037 | 0.021 ± 0.038 | -0.0085 ± 0.0064 | -0.002 ± 0.0042 | 0.046 ± 0.018
CASM3C:CXCL9/MIG | 0.004 ± 0.017 | 0.028 ± 0.076 | -0.001 ± 0.035 | 0.0015 ± 0.0078 | 0.0285 ± 0.083 | -0.0035 ± 0.069 | 0.001 ± 0.062 | -0.0015 ± 0.036 | 0.043 ± 0.017 | 0.0175 ± 0.035 | 0.0015 ± 0.013 | 0.0045 ± 0.03 | 0.0005 ± 0.044 | 0.009 ± 0.05 | -0.03 ± 0.02 | -0.032 ± 0.0071 | 0 ± 0.021 | -0.0045 ± 0.033 | -0.0675 ± 0.005 | -0.166 ± 0.073 | 0.0175 ± 0.005 | 0.0055 ± 0.013 | 0.004 ± 0.0014 | 0.003 ± 0.054 | 0.042 ± 0.042 | 0.006 ± 0.023 | 0.015 ± 0.016 | 0.054 ± 0.051
CASM3C:HLA-DR | -0.018 ± 0.023 | 0.0245 ± 0.066 | -0.0115 ± 0.005 | 0.0175 ± 0.021 | 0.024 ± 0.088 | -0.001 ± 0.031 | -0.019 ± 0.014 | -0.022 ± 0.023 | 0.003 ± 0.054 | 0.002 ± 0.0057 | -0.0005 ± 0.0035 | -0.005 ± 0.058 | -0.0035 ± 0.039 | 0.018 ± 0.011 | 0.0155 ± 0.023 | -0.009 ± 0.024 | -0.015 ± 0.017 | 0.006 ± 0.0042 | -0.002 ± 0.024 | -0.111 ± 0.013 | 0.022 ± 0.0014 | -0.003 ± 0.037 | 0.005 ± 0.05 | 0.0015 ± 0.03 | 0.0305 ± 0.079 | -0.009 ± 0.0085 | -0.0315 ± 0.005 | -0.004 ± 0.052
CASM3C:IL-6 | 0.0125 ± 0.081 | 0.024 ± 0.058 | 0.012 ± 0.059 | 0.0065 ± 0.032 | 0.0385 ± 0.087 | 0.01 ± 0.072 | -0.02 ± 0.028 | -0.028 ± 0.027 | 0.014 ± 0.047 | 0.016 ± 0.058 | -0.0095 ± 0.021 | -0.0005 ± 0.037 | 0.0105 ± 0.03 | 0.016 ± 0.024 | 0.0025 ± 0.029 | -0.0075 ± 0.0064 | -0.0005 ± 0.018 | 0.0245 ± 0.023 | -0.0025 ± 0.0035 | -0.0255 ± 0.044 | 0.035 ± 0.0085 | -0.0005 ± 0.054 | 0.0075 ± 0.025 | 0.04 ± 0.018 | 0.0695 ± 0.081 | -0.0135 ± 0.0078 | -0.0205 ± 0.021 | 0.008 ± 0.085
CASM3C:LDLR | 0.0215 ± 0.028 | 0.0195 ± 0.032 | 0.0255 ± 0.053 | -0.0045 ± 0.012 | 0.047 ± 0.045 | -0.0145 ± 0.005 | -0.0085 ± 0.0064 | -0.0045 ± 0.0078 | -0.0095 ± 0.025 | 0.025 ± 0.044 | 0.008 ± 0.0085 | -0.015 ± 0.023 | 0.022 ± 0.014 | 0.006 ± 0.023 | -0.0005 ± 0.0064 | 0.0135 ± 0.013 | 0.0415 ± 0.026 | 0.0005 ± 0.025 | -0.076 ± 0.0057 | -0.223 ± 0.021 | -0.007 ± 0.017 | 0.015 ± 0.04 | -0.005 ± 0.02 | -0.0225 ± 0.0064 | 0.0395 ± 0.04 | 0.0175 ± 0.0092 | 0.012 ± 0.016 | 0.0125 ± 0.039
